# Measured values reported in PubChem BioAssay AID1671190 (National Center for Advancing Translational Sciences (NCATS), 2021).
# By UniProt entry, the sequences of proteins in these tests, tags left out. Where a name states a change or a piece, a line headed by the entry shows the natural chain unless it says otherwise.
# UniProt P18054: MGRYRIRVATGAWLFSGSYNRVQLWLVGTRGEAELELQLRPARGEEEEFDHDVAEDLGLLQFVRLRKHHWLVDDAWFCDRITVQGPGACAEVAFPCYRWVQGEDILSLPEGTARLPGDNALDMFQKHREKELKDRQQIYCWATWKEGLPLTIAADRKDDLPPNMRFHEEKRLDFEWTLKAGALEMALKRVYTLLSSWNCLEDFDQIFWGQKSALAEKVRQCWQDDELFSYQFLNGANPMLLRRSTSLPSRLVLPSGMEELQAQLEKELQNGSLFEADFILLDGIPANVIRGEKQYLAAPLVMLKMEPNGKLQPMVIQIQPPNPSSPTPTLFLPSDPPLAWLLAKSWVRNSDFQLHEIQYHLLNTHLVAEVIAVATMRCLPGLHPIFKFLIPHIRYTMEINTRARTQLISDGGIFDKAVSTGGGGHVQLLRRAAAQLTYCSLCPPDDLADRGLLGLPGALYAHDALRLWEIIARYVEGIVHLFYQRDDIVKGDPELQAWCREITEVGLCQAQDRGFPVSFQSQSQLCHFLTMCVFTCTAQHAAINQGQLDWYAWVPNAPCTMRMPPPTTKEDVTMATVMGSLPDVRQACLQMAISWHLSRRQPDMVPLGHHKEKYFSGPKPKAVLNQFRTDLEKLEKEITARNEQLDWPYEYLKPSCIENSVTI
# About 6,100 (1.1%) of roughly 580,000 compounds were called active. The shares of active, inactive and inconclusive entries below differ from those in the screen. Calls come from the whole dose curve; as a rule, active = well fitted inhibition curve with a large enough effect; inconclusive = small, poorly fitted or top-dose-only effect, or another doubt; inactive = no such curve, though single readings can be large or run the other way. Where the call is inconclusive, the potency comes from a doubtful curve fit.
# Biological target: Polyunsaturated fatty acid lipoxygenase ALOX12 (Homo sapiens) (UniProt P18054)
# Assay: Primary qHTS assay for inhibitors of human arachidonate 12S-lipoxygenase (ALOX12): Round 2
# Settings: purified 12hLO, xylenol orange hydroperoxide absorbance; series mostly up to 108 µM
# Outline: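 Purified human 12hLO at 150 nM in 25 mM Hepes, 0.01% Triton X-100, pH 7.0, preincubated 15 min at room temperature with compound. Reaction started with 40 uM arachidonic acid, 30 min at room temperature. Hydroperoxide measured by Fe-xylenol orange, 573/405 nm absorbance ratio.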
# Potency is the fitted concentration of half-maximal effect.
row,Structure (SMILES),Potency
1,N#C/C(=N/Nc1ccc([N+](=O)[O-])cc1)C(=N)N1CCCCC1,"inconclusive: 50.1 µM [inhibitor, partial curve, poor fit]"
2,O=C(Cc1ccccc1O)N1CCCC(CCc2c(F)cccc2F)C1 (stereo unspecified),inactive
3,Cc1ccc(OCCCCN(C)Cc2ccccc2)c(Br)c1,"inconclusive: 25.1 µM [inhibitor, partial curve, poor fit]"
4,C/C(=N/Nc1ccc(S(N)(=O)=O)cc1[N+](=O)[O-])c1ccc(C)o1,inactive
5,COCCCOc1cc(C[C@@H](C[C@H](N)[C@@H](O)C[C@H](C(=O)NCC(C)(C)C(N)=O)C(C)C)C(C)C)ccc1OC,"inconclusive: 19.3 µM [inhibitor, single point]"
6,CCCn1c(=O)c2sccc2n2c(CCCC(=O)Nc3ccc(Oc4ccccc4)cc3)nnc12,"inconclusive: 6.31 µM [inhibitor, full curve, poor fit]"
7,CC(C)C(NS(=O)(=O)c1ccc(-c2ccc(Br)cc2)cc1)C(=O)O (stereo unspecified),"inconclusive: 2 µM [inhibitor, partial curve, poor fit]"
8,CCCCNC(=O)c1ccc2nc(CC)c(N(C)Cc3cccs3)n2c1,"inconclusive: 50.1 µM [inhibitor, partial curve, poor fit]"
9,CS(=O)(=O)c1ccccc1NC(=O)COc1ccccc1C(N)=O,"inconclusive: 35.5 µM [inhibitor, partial curve, poor fit]"
10,O=C(O)Cc1ccc(O)c(O)c1,"inconclusive: 44.7 µM [inhibitor, partial curve, poor fit]"
11,CC(NC(=O)c1ccc(CS(C)(=O)=O)cc1)c1cccc2ccccc12 (stereo unspecified),"inconclusive: 1.78 µM [inhibitor, full curve, poor fit]"
12,CCc1nnc(NC(=O)c2ccco2)s1,"inconclusive: 112 µM [inhibitor, single point]"
13,N#Cc1cccc(CN2CCCC(c3nc(-c4cccnc4)no3)CCNC(=O)CC2)c1 (stereo unspecified),inactive
14,CCN(CC)CCCNC(=O)CSc1nc2nc(C)c(Cc3c(F)cccc3Cl)c(C)n2n1,inactive
15,COC(=O)[C@@H]1Cc2c([nH]c3ccccc23)[C@H]2C[C@@H](NCCO)C[C@@H](c3ccccc3F)N21,"inconclusive: 44.7 µM [inhibitor, partial curve]"
16,CCOc1cccc(C(=O)Nc2ccccc2C(=O)N2CCN(C)CC2)c1,"inconclusive: 35.5 µM [inhibitor, partial curve, poor fit]"
17,CCCOc1c(Br)cc(C2C3=C(CCCC3=O)N(C)C3=C2C(=O)CCC3)cc1OC,"inconclusive: 56.2 µM [inhibitor, partial curve, poor fit]"
18,Cc1ccc(-c2csc(NC(=O)C[n+]3cc(-c4ccc(C)cc4)n4c3CCC4)n2)cc1,inactive
19,CN1CCN(C(=O)C2CCCN(S(=O)(=O)c3ccccc3)C2)CC1 (stereo unspecified),"inconclusive: 1.58 µM [inhibitor, full curve, poor fit]"
20,Nc1nonc1C(=O)NCCNc1ccc([N+](=O)[O-])cc1,"inconclusive: 35.5 µM [inhibitor, single point]"
21,COc1ccccc1CNc1nc2ccccc2n1CCN1CCCCC1,"inconclusive: 25.1 µM [inhibitor, partial curve, poor fit]"
22,O=C(NNc1ccccc1)Nc1cc(Cl)ccc1Cl,"inconclusive: 17.8 µM [inhibitor, full curve, poor fit]"

# Entries from the list above containing a COOH group (two):
row,Structure (SMILES),Potency
7,CC(C)C(NS(=O)(=O)c1ccc(-c2ccc(Br)cc2)cc1)C(=O)O (stereo unspecified),"inconclusive: 2 µM [inhibitor, partial curve, poor fit]"
10,O=C(O)Cc1ccc(O)c(O)c1,"inconclusive: 44.7 µM [inhibitor, partial curve, poor fit]"

# Continued:

row,Structure (SMILES),Potency
1,COc1ccc(-c2cc(C)nc3c(-c4ccccc4)cnn23)cc1,inactive
2,CC(C)NC(=O)c1ccc(COc2cccc3ccccc23)o1,"inconclusive: 79.4 µM [inhibitor, partial curve, poor fit]"
3,COc1ccc(NC(=O)C2(C)Cc3c(-c4ccc5c(c4)OCO5)ccnc3O2)cn1 (stereo unspecified),inactive
4,CCCc1nc2c(C)cc(-c3nc4ccccc4n3C)cc2n1Cc1ccc(-c2ccccc2C(=O)O)cc1,"inconclusive: 3.43 µM [inhibitor, full curve]"
5,c1ccc(OCCNc2ccn3nc(-c4ccco4)cc3n2)cc1,"inconclusive: 0.501 µM [inhibitor, full curve, poor fit]"
6,CCCCN=C1NN=C(c2ccc3c(c2)OCCO3)CS1,"inconclusive: 56.2 µM [inhibitor, partial curve, poor fit]"
7,COc1ccccc1CNc1cc(-c2cccc(NS(C)(=O)=O)c2)ncn1,"inconclusive: 15.8 µM [inhibitor, full curve]"
8,COc1ccc(-c2noc(CSc3nc(C)cc(=O)[nH]3)n2)cc1OC,"inconclusive: 7.08 µM [inhibitor, full curve, poor fit]"
9,CCCn1nnc2c(=O)oc3ccccc3c21,"inconclusive: 2.51 µM [inhibitor, full curve, poor fit]"
10,NCCCNC(=O)Cn1c(=O)c2c3c(sc2n(Cc2ccccc2)c1=O)CCCC3,inactive
11,Cc1ccc(NC(=O)CSc2nnc3n(CC(C)C)c(=O)c4ccccc4n23)c(C)c1,inactive
12,CCCNC(=S)Nc1ccccc1,inactive
13,Cc1ncnc2nc[nH]c12,"inconclusive: 112 µM [inhibitor, single point]"
14,CCOC(=O)Nc1ccc(N2CCn3c(nc4ccccc43)C2)cc1,inactive
15,CCn1c(-n2nc(C)c(C)c2C)nc2c1c(=O)n(CC(=O)OC)c(=O)n2C,inactive
16,COc1ccc(CNc2nc3ccccc3n2CCN2CCCCC2)c(OC)c1,"inconclusive: 35.5 µM [inhibitor, partial curve, poor fit]"
17,O=c1[nH]c(CSc2nc3ccccc3o2)nc2cc(Cl)ccc12,active: 8.91 µM
18,O=C(Nc1ccccc1N1CCCCC1)c1ccc(-c2ccc(Cl)cc2)o1,inactive
19,Cc1ccc(N2C(=O)/C(=C\c3ccco3)SC2=S)cc1,"inconclusive: 50.1 µM [inhibitor, partial curve, poor fit]"
20,NC1=C(Cl)C(=O)c2ccccc2C1=O,"inconclusive: 39.8 µM [inhibitor, partial curve, poor fit]"
21,O=C(Cc1cccs1)N1CCC(Oc2ccccc2)C1 (stereo unspecified),active: 50.1 µM
22,CCCCCCCCOC(=O)C1=C(C)Nc2nnnn2C1c1cccs1 (stereo unspecified),"inconclusive: 50.1 µM [inhibitor, partial curve, poor fit]"

row,Structure (SMILES),Potency
1,CN1CCN(c2ccc(S(=O)(=O)N3CCCCC3)cc2NC(=O)c2ccc3ccccc3c2)CC1,"inconclusive: 79.4 µM [inhibitor, partial curve, poor fit]"
2,Cc1ccc2nc(-c3ccncc3)c(Nc3ccc(C(C)C)cc3)n2c1,inactive
3,CCCCC1CCC(c2nc(-c3ccccn3)no2)CC1 (stereo unspecified),"inconclusive: 100 µM [inhibitor, partial curve, poor fit]"
4,COc1cccc(C#Cc2ccc3c(c2)O[C@H](CN(C)S(=O)(=O)c2ccccc2F)[C@H](C)CN([C@H](C)CO)S3(=O)=O)c1,"inconclusive: 31.6 µM [inhibitor, partial curve, poor fit]"
5,OC(c1ccc(F)cc1)c1nc(-c2cc3ccccc3o2)cs1 (stereo unspecified),"inconclusive: 44.7 µM [inhibitor, partial curve, poor fit]"
6,N#CC1(NC(=O)CSc2c(Cl)cccc2Cl)CCCCC1,active: 14.1 µM
7,Brc1ccc(-c2nnc3n2C2(CCCC2)Cc2ccccc2-3)o1,inactive
8,Cc1ccc(CSc2nc(-c3ccc(C(C)(C)C)cc3)nc3cc(=O)[nH]n23)cc1,inactive
9,Cc1ccc2nc(C(=O)N3CCN(c4ccccc4F)CC3)cn2c1,"inconclusive: 28.2 µM [inhibitor, partial curve]"
10,O=C1ON=C(c2ccccc2)/C1=C/c1ccc(-c2ccccc2[N+](=O)[O-])o1,active: 3.98 µM
11,N#CC1=C(N)N2C(=C(C#N)C13CCCCC3)SC1CCCCC12O (stereo unspecified),"inconclusive: 100 µM [inhibitor, single point]"
12,Cc1cc(OCc2n[nH]c(=S)n2CC2CCCO2)cc(C)c1Cl (stereo unspecified),"inconclusive: 14.1 µM [inhibitor, partial curve, poor fit]"
13,CC(C)c1cc(NC(=O)c2ccccc2)cc(C(C)C)c1O,"inconclusive: 3.55 µM [inhibitor, full curve, poor fit]"
14,COC(=O)C1=C(C)N(Cc2cccc(C(F)(F)F)c2)C(=NCC2CC2)NC1c1ccccc1 (stereo unspecified),"inconclusive: 39.8 µM [inhibitor, partial curve, poor fit]"
15,COc1ccc(OCc2nc3ccc(S(=O)(=O)Nc4ccccc4Cl)cc3[nH]2)cc1,inactive
16,C#Cc1ccc(-n2nc3ccccc3c2OC)cc1,"inconclusive: 79.4 µM [inhibitor, partial curve, poor fit]"
17,COc1ccc(C(=O)Oc2cc(/C=N/NC(N)=S)ccc2OC)cc1,active: 31.6 µM
18,Cc1ccc(S(=O)(=O)NNC(=O)Nc2ccc([N+](=O)[O-])cc2)c(C)c1,"inconclusive: 79.4 µM [inhibitor, partial curve, poor fit]"
19,CN(C1CCS(=O)(=O)C1)S(=O)C12CC3CC(CC(C3)C1)C2 (stereo unspecified),"inconclusive: 112 µM [inhibitor, single point]"
20,CN(C)C(=O)C1CN(C(=O)CCC(=O)c2ccc(F)cc2)CC12CCOCC2 (stereo unspecified),"inconclusive: 12.6 µM [inhibitor, full curve]"
21,O=C(/C=C/Nc1ccc(Cl)cc1)C(F)(F)F,"inconclusive: 44.7 µM [inhibitor, partial curve, poor fit]"
22,CCCCCCCCN1C(=O)[C@H](CC(=O)NCc2ccc(OC)c(OC)c2)C[C@@]2(C(=O)OCC)CCCC=C12,"inconclusive: 10 µM [inhibitor, partial curve, poor fit]"
